In patent US20060160095A1, “Survivin” (EiRx Therapeutics Limited, priority 2002, published 2006):
At least one structure is not confirmed: it was looked up by name or label, or the drawing left a doubt.

What was measured:
[1] = tested on: Survivin gene; assay: LifeGrid microarray of Survivin expression in retinoic acid treated HL60 cells; assay type: cell-based
[2] = tested on: HL60 cells; assay: Nitroblue tetrazolium (NBT) reduction test of neutrophil differentiation; assay type: cell-based; conditions: 10 μM Retinoic acid, 5-day time course

## CC1=C(/C=C/C(C)=C/C=C/C(C)=C/C(=O)O)C(C)(C)CCC1 [retinoic acid, Retinoic acid]
[1]
  Expression of Survivin (fold change versus time zero): increases throughout Day 1, 2 and 3
[2]
  differentiation of HL60 cells (NBT reduction): arrest their cell cycle and differentiate into neutrophils
